Results: patent US6720139B1, “Genes identified as required for proliferation in Escherichia coli” (priority 1999, dated 2004)
Entries after “also recorded” stand apart in the source; their conditions may differ. For at least one compound, name, drawing or mass did not settle the structure.

Test system: E. coli cells expressing antisense RNA to rplL, rplJ, rplW or to comparison genes (elaD, visC, yohH, atpB/E)
Experiment: Antibiotic sensitivity of cells expressing antisense RNA (Example 9)
Type: cell-based
Details: for sensitivity to tetracycline (fold increase, IC50 ratio): FIG. 3
Description: The effectiveness of the above cell based assay was validated using constructs expressing antisense RNA to E. coli genes rplL, rplJ, and rplW encoding ribosomal proteins L7/L12, L10 and L23 respectively. These proteins are part of the protein synthesis apparatus of the cell and as such are required for proliferation. These constructs were used to test the effect of antisense expression on cell sensitivity to antibiotics known to bind to the ribosome and thereby inhibit protein synthesis. Constructs expressing antisense RNA to several other genes (elaD, visC, yohH, and aptE/B), the products of which are not involved in protein synthesis were used for comparison.
First expression vectors containing antisense constructs to either rplW or to elaD were introduced into separate E. coli cell populations. Vector introduction is a technique well known to those of ordinary skill in the art. The expression vectors of this example contain IPTG inducible promoters that drive the expression of the antisense RNA in the presence of the inducer. However, those skilled in the art will appreciate that other inducible promoters may also be used. Suitable expression vectors are also well known in the art. The E. coli antisense clones encoding ribosomal proteins L7/L12, L10 and L23 were used to test the effect of antisense expression on cell sensitivity to the antibiotics known to bind to these proteins. First, expression vectors containing antisense to either the genes encoding L7/L12 and L10 or L23 were introduced into separate E. coli cell populations.
Cells were pretreated with the selected concentration of IPTG and then used to test the sensitivity of cell populations to tetracycline, erythromycin and other protein synthesis inhibitors. An example of a tetracycline dose response curve is shown in FIGS. 2A and 2B for the rplW and elaD genes, respectively. Cells were grown to log phase and then diluted into media alone or media containing IPTG at concentrations which give 20% and 50% growth inhibition as determined by IPTG dose response curves. After 2.5 hours, the cells were diluted to a final OD600 of 0.002 into 96 well plates containing (1) +/−IPTG at the same concentrations used for the 2.5 hour pre-incubation; and (2) serial two-fold dilutions of tetracycline such that the final concentrations of tetracycline range from 1 μg/ml to 15.6 ng/ml and 0 μg/ml. The 96 well plates were incubated at 37° C. and the OD600 was read by a plate reader every 5 minutes for up to 15 hours. For each IPTG concentration and the no IPTG control, tetracycline dose response curves were determined when the control (absence of tetracycline) reached 0.1 OD600.

## CN(C)[C@@H]1C(O)=C(C(N)=O)C(=O)[C@@]2(O)C(O)=C3C(=O)c4c(O)cccc4[C@@](C)(O)[C@H]3C[C@@H]12 [Tetracycline]
Cells expressing antisense to genes not involved in protein synthesis (atpB/E, visC, elaD, yohH)
  sensitivity to tetracycline (fold increase, IC50 ratio): much less sensitive; also recorded: did not show the same increased sensitivity
Cells with reduced levels of L23 (rplW), FIG. 2a
  sensitivity to tetracycline (IC50 with vs without IPTG): increased sensitivity
Cells with reduced levels of either L7/L12 (rplL, rplJ) or L23 (rplW), IPTG giving 50% growth inhibition
  sensitivity to tetracycline (fold increase, IC50 ratio): increased sensitivity

## CC1COc2c(N3CCN(C)CC3)c(F)cc3c(=O)c(C(=O)O)cn1c23 (stereo not shown) [Ofloxacin]
Clone expressing antisense to rplL and rplJ
  sensitivity to antibiotics which do not inhibit protein synthesis: does not show increased sensitivity
